In all, about 580,000 compounds went through this assay and about 6,100 (1.1%) were called active. This list was built around the results that the source calls inconclusive (neither active nor inactive); the mix of calls is not that of the screen. The call rests on the fitted dose curve; in most records, active means well fitted inhibition curve with a large enough effect; inconclusive means small, poorly fitted or top-dose-only effect, or another doubt; inactive means no such curve, though single readings can be large or run the other way. Potencies beside an inconclusive call are fits to weak or partial responses and may not hold up.
molecular target: Polyunsaturated fatty acid lipoxygenase ALOX12 (Homo sapiens) (UniProt P18054); assay: Primary qHTS assay for inhibitors of human arachidonate 12S-lipoxygenase (ALOX12): Round 2; details: purified 12hLO, xylenol orange hydroperoxide absorbance; activity change, negative = inhibition: at 108 µM (top of the series) unless noted
Outline: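 Purified human 12hLO at 150 nM in 25 mM Hepes, 0.01% Triton X-100, pH 7.0, preincubated 15 min at room temperature with compound. Reaction started with 40 uM arachidonic acid, 30 min at room temperature. Hydroperoxide measured by Fe-xylenol orange, 573/405 nm absorbance ratio.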
On the % scale 0 is the no-effect control and ±100 the full control effect; potency means the concentration at half of the fitted maximal effect.

Amino acid sequences for entries named in this document (tags omitted). A change or cut given only in a name is not applied to a line headed by its entry.
UniProt P18054: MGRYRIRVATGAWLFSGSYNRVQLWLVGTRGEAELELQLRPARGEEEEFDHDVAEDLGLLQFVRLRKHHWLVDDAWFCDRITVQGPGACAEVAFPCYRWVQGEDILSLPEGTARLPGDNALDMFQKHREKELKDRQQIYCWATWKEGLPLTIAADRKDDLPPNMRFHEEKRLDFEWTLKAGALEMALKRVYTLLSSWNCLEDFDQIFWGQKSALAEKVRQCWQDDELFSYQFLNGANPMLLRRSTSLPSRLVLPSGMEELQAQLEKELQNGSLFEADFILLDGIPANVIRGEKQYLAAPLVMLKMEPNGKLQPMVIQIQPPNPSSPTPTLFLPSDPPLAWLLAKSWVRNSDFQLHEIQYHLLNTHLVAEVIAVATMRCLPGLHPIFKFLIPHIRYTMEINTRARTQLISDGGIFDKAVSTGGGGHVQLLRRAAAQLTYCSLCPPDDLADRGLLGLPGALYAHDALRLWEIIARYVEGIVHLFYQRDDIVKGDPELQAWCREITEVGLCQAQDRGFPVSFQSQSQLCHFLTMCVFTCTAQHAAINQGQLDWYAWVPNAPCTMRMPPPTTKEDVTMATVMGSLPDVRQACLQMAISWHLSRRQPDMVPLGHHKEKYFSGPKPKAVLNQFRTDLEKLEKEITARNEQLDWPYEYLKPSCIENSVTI

| SMILES | Potency | activity change, negative = inhibition |
| --- | --- | --- |
| COc1ccc(-c2noc([C@@H](C)NCc3ccccc3)c2C(=O)O)cc1 | inconclusive: 15.8 µM [inhibitor, full curve] |  |
| CCn1c(C)cc2c(c1=O)C(c1ccc(Br)cc1)C(C#N)=C(N)O2 (stereo not drawn) | inconclusive: 44.7 µM [inhibitor, single point] |  |
| Cc1cccc(-c2cc(Nc3cccc(C(=O)Nc4cccc(F)c4)c3)ncn2)c1 | inactive |  |
| CCCOC(=O)CNC(=O)c1cc(OC)cc(OC)c1 | inactive |  |
| CCOC(=O)C(=O)N(C)c1c(CC)nc2c(OCc3ccc(Cl)cc3)cccn12 | inconclusive: 8.91 µM [inhibitor, full curve] |  |
| CCCc1cc(C(=O)Cc2ccc(F)cc2)c(O)cc1O | inconclusive: 2.24 µM [inhibitor, full curve, poor fit] |  |
| Cc1ccc(CN2CCCC23Cc2ccccc2CNC3=O)cc1 (stereo not drawn) | inconclusive: 50.1 µM [inhibitor, partial curve, poor fit] |  |
| COc1ccc(-c2nccc3[nH]nc(-c4cccc(OC(F)(F)F)c4)c23)cc1OC | inconclusive: 70.8 µM [inhibitor, partial curve, poor fit] |  |
| NC(N)=NC(=O)c1nc(Cl)c(N)nc1N | inconclusive: 9.68 µM [inhibitor, full curve, poor fit] |  |
| Cc1cnc(-c2ccncc2)n1CCN | active: 3.55 µM |  |
| CCOC(=O)c1cccc(C(=O)O)n1 | inconclusive: 0.398 µM [inhibitor, full curve, poor fit] |  |
| CCc1ccc2nc3sc(C(=O)Nc4nnc(CC)s4)c(N)c3cc2c1 | inconclusive: 35.5 µM [inhibitor, partial curve] |  |
| COCCCNC(=O)C(C#N)c1nc2ccccc2nc1N1CCN(Cc2ccccc2)CC1 (stereo not drawn) | inconclusive: 8.91 µM [inhibitor, partial curve, poor fit] |  |
| O=C(O)C1CCc2nnc(C3CCN(S(=O)(=O)CCC(F)(F)F)CC3)n21 (stereo not drawn) | inconclusive: 2.02 µM [inhibitor, partial curve] |  |
| O=c1[nH]cnc2sc3c(c12)CCCC3 | inconclusive: 22.4 µM [inhibitor, full curve, poor fit] |  |
| CN1c2ccccc2C(C)(C)C12C=Nc1c(ccc3ccccc13)O2 (stereo not drawn) | inconclusive: 0.891 µM [inhibitor, full curve, poor fit] |  |
| CC1(NC(=O)CCc2ncc(-c3ccccc3)o2)CCS(=O)(=O)C1 (stereo not drawn) | inconclusive: 100 µM [inhibitor, single point] |  |
| CC(C)=NOc1nc(N(C)C)nc(N2CCOCC2)n1 | inconclusive: 2.51 µM [inhibitor, single point] |  |
| c1cc2c(cc1-c1csc(C3CC3)n1)OCCCO2 | inconclusive: 7.08 µM [inhibitor, full curve] |  |
| O=C(Cn1c(C(F)(F)F)nc2ccccc21)N1CCCC1 | inactive |  |
| COCCN(C(=S)Nc1c(C)cccc1C)C(C)c1ccco1 (stereo not drawn) | inactive |  |
| N#C/C(=C\c1ccccc1[N+](=O)[O-])C(=O)NCc1ccccc1 | inconclusive: 89.1 µM [inhibitor, single point] |  |

3 entries already listed, ordered by molar mass, ascending.

| SMILES | Potency | activity change, negative = inhibition |
| --- | --- | --- |
| N#C/C(=C\c1ccccc1[N+](=O)[O-])C(=O)NCc1ccccc1 | inconclusive: 89.1 µM [inhibitor, single point] |  |
| COc1ccc(-c2noc([C@@H](C)NCc3ccccc3)c2C(=O)O)cc1 | inconclusive: 15.8 µM [inhibitor, full curve] |  |
| COc1ccc(-c2nccc3[nH]nc(-c4cccc(OC(F)(F)F)c4)c23)cc1OC | inconclusive: 70.8 µM [inhibitor, partial curve, poor fit] |  |

Further entries

| SMILES | Potency | activity change, negative = inhibition |
| --- | --- | --- |
| Cc1csc(SCC(=O)c2ccc(S(=O)(=O)N3CCOCC3)cc2)n1 | inconclusive: 50.1 µM [inhibitor, partial curve, poor fit] |  |
| CCOC(=O)CNC(=S)SC | inactive |  |
| CN1CC(=O)N(C2CCCNCC2)Cc2c1ncnc2N1CCc2ccccc2C1 (stereo not drawn) | inconclusive: 7.08 µM [inhibitor, full curve, poor fit] |  |
| CC(C)CC1C(C#N)=C(N)SC(N)=C1C#N | inconclusive: 44.7 µM [inhibitor, partial curve, poor fit] |  |
| CCOC(=O)C(=O)N(C)c1c(CC)nc2c(OCCC3CCCCC3)cccn12 | inconclusive: 89.1 µM [inhibitor, single point] |  |
| COc1ccc(CCNC(=O)C2(C)CCC(=O)N2CCC(C)C)cc1OC (stereo not drawn) | inconclusive: 4.47 µM [inhibitor, full curve, poor fit] |  |
| CCCC(=O)N1CC2(CCCN2Cc2cccnc2)Cc2ccccc21 (stereo not drawn) |  | inconclusive: -35.3% [inhibitor] |
| CCCCn1cnc2c(SCc3ccccc3F)nc(N)nc21 | inconclusive: 7.08 µM [inhibitor, full curve, poor fit] |  |
| O=C(O)C(C(=O)Oc1ccccc1)C(C(=O)O)C(=O)Oc1ccccc1 (stereo not drawn) | inconclusive: 44.7 µM [inhibitor, partial curve, poor fit] |  |
| NC1=NC[C@@H](Cc2ccc(O)cc2)N1CCCCC1CCCCC1 | inactive |  |
| COc1ccc(/C(C)=N/Nc2nncc3ccccc23)cc1 | inconclusive: 35.5 µM [inhibitor, single point] |  |
| CC(=O)N(/N=C/c1ccc(C)cc1)c1nc(CCl)cs1 | inconclusive: 28.2 µM [inhibitor, single point] |  |
| CCOc1ccc(NS(=O)(=O)c2ccc(C(=O)NCc3cccnc3)cc2)cc1 | inconclusive: 112 µM [inhibitor, single point] |  |
| O=C(N/N=C/c1ccc(O)c(O)c1)C1CC1 | inconclusive: 1.26 µM [inhibitor, full curve, poor fit] |  |
| O=C1[C@@H]2C[C@@H](CN2C(=O)c2cncnc2)Oc2ccccc2N1Cc1ccc(OC(F)(F)F)cc1 | inactive |  |
| NC(=S)Nc1cc(Cl)ccc1Cl | inconclusive: 50.1 µM [inhibitor, partial curve, poor fit] |  |
| CC12CCC(C(=O)N(CSC(=S)N/N=C\c3ccccc3O)C1=O)C2(C)C (stereo not drawn) | inactive |  |
| CC(=O)NC1(C)CCN(Cc2cnc(-c3ccc4c(ccn4C)c3)s2)CC1 | active: 39.8 µM |  |
| Cc1ccc(-n2c(C)cc(/C=N/Nc3ccc([N+](=O)[O-])cn3)c2C)cc1 | inconclusive: 44.7 µM [inhibitor, partial curve, poor fit] |  |
| COCCn1c(C)cc(C(=O)CSc2nnc(Nc3ccccc3)s2)c1C | inactive |  |
| CCCCN(C(=O)c1sc2nc3n(c(=O)c2c1C)CCC3)c1c(N)n(CC(C)C)c(=O)[nH]c1=O | inconclusive: 141 µM [inhibitor, partial curve, poor fit] |  |

From PubChem BioAssay AID1671190 (National Center for Advancing Translational Sciences (NCATS), 2021)
